Measured data: PubChem BioAssay AID1508597 (Cure First, 2020)
The whole screen tested about 2,100 reagents; below is a random part of them. 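Calls flag viability under 80% in either arm, not effects specific to rucaparib; the reference for percent is not stated.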 A reagent listed more than once was tested more than once; the source does not tell the runs apart. Not given: the 100% reference.

Purpose: 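Survival screen with siRNA in ovarian cancer cells derived from patients, with or without rucaparib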 (primary screen)
System: human ovarian carcinoma lines grown from tumours: OCI-P5x (papillary serous) and OCI-C5x (clear cell)
Knock-down reagent: siRNA pool against human genes, 1.25 pmol siRNA per well
Timing: 72 h or 96 h, depending on the cell culture
Treatment: rucaparib 20 µM (about IC30) or vehicle, present until read-out
Detection: 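ATP luminescence measured at 72 or 96 h according to the culture, then normalised and expressed as percent viability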
Scale: viability, normalised: higher = more viable cells remaining
Call rule: 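Active when normalised viability falls below 80 percent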
Meaning of the calls: active = viability under 80%; inactive = viability 80% or more

gene knocked down,rucaparib or vehicle,cell line,technical replicate,"viability, normalised (%)",activity call
SKIC2 (SKI2 subunit of superkiller complex),Rucaparib,OCI-C5x (clear cell),1,55.4,active
SKIC2 (SKI2 subunit of superkiller complex),Rucaparib,OCI-C5x (clear cell),2,39.8,active
SKIC2 (SKI2 subunit of superkiller complex),Rucaparib,OCI-C5x (clear cell),3,41.1,active
SKIC2 (SKI2 subunit of superkiller complex),Rucaparib,OCI-P5x (serous),1,47.1,active
SKIC2 (SKI2 subunit of superkiller complex),Rucaparib,OCI-P5x (serous),2,52.4,active
SKIC2 (SKI2 subunit of superkiller complex),Rucaparib,OCI-P5x (serous),3,50.7,active
SKIC2 (SKI2 subunit of superkiller complex),Vehicle,OCI-C5x (clear cell),1,46.6,active
SKIC2 (SKI2 subunit of superkiller complex),Vehicle,OCI-C5x (clear cell),2,39.4,active
SKIC2 (SKI2 subunit of superkiller complex),Vehicle,OCI-C5x (clear cell),3,36.9,active
SKIC2 (SKI2 subunit of superkiller complex),Vehicle,OCI-P5x (serous),1,65.5,active
SKIC2 (SKI2 subunit of superkiller complex),Vehicle,OCI-P5x (serous),2,72.2,active
SKIC2 (SKI2 subunit of superkiller complex),Vehicle,OCI-P5x (serous),3,81.3,inactive
PKM (pyruvate kinase M1/2),Rucaparib,OCI-C5x (clear cell),1,59.1,active
PKM (pyruvate kinase M1/2),Rucaparib,OCI-C5x (clear cell),2,75.2,active
PKM (pyruvate kinase M1/2),Rucaparib,OCI-C5x (clear cell),3,72,active
PKM (pyruvate kinase M1/2),Rucaparib,OCI-P5x (serous),1,103,inactive
PKM (pyruvate kinase M1/2),Rucaparib,OCI-P5x (serous),2,99.8,inactive
PKM (pyruvate kinase M1/2),Rucaparib,OCI-P5x (serous),3,94.1,inactive
PKM (pyruvate kinase M1/2),Vehicle,OCI-C5x (clear cell),1,69.7,active
PKM (pyruvate kinase M1/2),Vehicle,OCI-C5x (clear cell),2,72.3,active
PKM (pyruvate kinase M1/2),Vehicle,OCI-C5x (clear cell),3,56.5,active
PKM (pyruvate kinase M1/2),Vehicle,OCI-P5x (serous),1,98.6,inactive
PKM (pyruvate kinase M1/2),Vehicle,OCI-P5x (serous),2,91.5,inactive
PKM (pyruvate kinase M1/2),Vehicle,OCI-P5x (serous),3,100,inactive
ACVRL1 (activin A receptor like type 1),Rucaparib,OCI-C5x (clear cell),1,50,active
ACVRL1 (activin A receptor like type 1),Rucaparib,OCI-C5x (clear cell),2,51.5,active
ACVRL1 (activin A receptor like type 1),Rucaparib,OCI-C5x (clear cell),3,48.5,active
ACVRL1 (activin A receptor like type 1),Rucaparib,OCI-P5x (serous),1,82,inactive
ACVRL1 (activin A receptor like type 1),Rucaparib,OCI-P5x (serous),2,62.5,active
ACVRL1 (activin A receptor like type 1),Rucaparib,OCI-P5x (serous),3,80.8,inactive
ACVRL1 (activin A receptor like type 1),Vehicle,OCI-C5x (clear cell),1,56.6,active
ACVRL1 (activin A receptor like type 1),Vehicle,OCI-C5x (clear cell),2,48.1,active
ACVRL1 (activin A receptor like type 1),Vehicle,OCI-C5x (clear cell),3,57.4,active
ACVRL1 (activin A receptor like type 1),Vehicle,OCI-P5x (serous),1,78.2,active
ACVRL1 (activin A receptor like type 1),Vehicle,OCI-P5x (serous),2,73.4,active
ACVRL1 (activin A receptor like type 1),Vehicle,OCI-P5x (serous),3,68.2,active
SMAD2 (SMAD family member 2),Rucaparib,OCI-C5x (clear cell),1,48,active
SMAD2 (SMAD family member 2),Rucaparib,OCI-C5x (clear cell),2,37.9,active
SMAD2 (SMAD family member 2),Rucaparib,OCI-C5x (clear cell),3,48.2,active
SMAD2 (SMAD family member 2),Rucaparib,OCI-P5x (serous),1,48.5,active
SMAD2 (SMAD family member 2),Rucaparib,OCI-P5x (serous),2,54.8,active
SMAD2 (SMAD family member 2),Rucaparib,OCI-P5x (serous),3,56.2,active
SMAD2 (SMAD family member 2),Vehicle,OCI-C5x (clear cell),1,45.4,active
SMAD2 (SMAD family member 2),Vehicle,OCI-C5x (clear cell),2,45.3,active
SMAD2 (SMAD family member 2),Vehicle,OCI-C5x (clear cell),3,51.7,active
SMAD2 (SMAD family member 2),Vehicle,OCI-P5x (serous),1,52.3,active
SMAD2 (SMAD family member 2),Vehicle,OCI-P5x (serous),2,55.8,active
SMAD2 (SMAD family member 2),Vehicle,OCI-P5x (serous),3,60,active

Part of the list above, set out differently.
{"gene knocked down": "PKM (pyruvate kinase M1/2)", "rucaparib or vehicle": "Vehicle", "cell line": "OCI-P5x (serous)", "technical replicate": "2", "viability, normalised (%)": 91.5, "activity call": "inactive"}
{"gene knocked down": "PKM (pyruvate kinase M1/2)", "rucaparib or vehicle": "Vehicle", "cell line": "OCI-P5x (serous)", "technical replicate": "3", "viability, normalised (%)": 100, "activity call": "inactive"}
{"gene knocked down": "ACVRL1 (activin A receptor like type 1)", "rucaparib or vehicle": "Rucaparib", "cell line": "OCI-C5x (clear cell)", "technical replicate": "1", "viability, normalised (%)": 50, "activity call": "active"}
{"gene knocked down": "ACVRL1 (activin A receptor like type 1)", "rucaparib or vehicle": "Rucaparib", "cell line": "OCI-C5x (clear cell)", "technical replicate": "2", "viability, normalised (%)": 51.5, "activity call": "active"}
{"gene knocked down": "ACVRL1 (activin A receptor like type 1)", "rucaparib or vehicle": "Rucaparib", "cell line": "OCI-C5x (clear cell)", "technical replicate": "3", "viability, normalised (%)": 48.5, "activity call": "active"}
{"gene knocked down": "ACVRL1 (activin A receptor like type 1)", "rucaparib or vehicle": "Rucaparib", "cell line": "OCI-P5x (serous)", "technical replicate": "1", "viability, normalised (%)": 82, "activity call": "inactive"}

Additional entries follow:
gene knocked down,rucaparib or vehicle,cell line,technical replicate,"viability, normalised (%)",activity call
PRKCA (protein kinase C alpha),Rucaparib,OCI-C5x (clear cell),1,30.2,active
PRKCA (protein kinase C alpha),Rucaparib,OCI-C5x (clear cell),1,99.5,inactive
PRKCA (protein kinase C alpha),Rucaparib,OCI-C5x (clear cell),2,131,inactive
PRKCA (protein kinase C alpha),Rucaparib,OCI-C5x (clear cell),2,34,active
PRKCA (protein kinase C alpha),Rucaparib,OCI-C5x (clear cell),3,89.2,inactive
PRKCA (protein kinase C alpha),Rucaparib,OCI-C5x (clear cell),3,32.9,active
PRKCA (protein kinase C alpha),Rucaparib,OCI-P5x (serous),1,138,inactive
PRKCA (protein kinase C alpha),Rucaparib,OCI-P5x (serous),1,40.5,active
PRKCA (protein kinase C alpha),Rucaparib,OCI-P5x (serous),2,49.9,active
PRKCA (protein kinase C alpha),Rucaparib,OCI-P5x (serous),2,157,inactive
PRKCA (protein kinase C alpha),Rucaparib,OCI-P5x (serous),3,145,inactive
PRKCA (protein kinase C alpha),Rucaparib,OCI-P5x (serous),3,60.3,active
PRKCA (protein kinase C alpha),Vehicle,OCI-C5x (clear cell),1,35.7,active
PRKCA (protein kinase C alpha),Vehicle,OCI-C5x (clear cell),1,113,inactive
PRKCA (protein kinase C alpha),Vehicle,OCI-C5x (clear cell),2,97.1,inactive
PRKCA (protein kinase C alpha),Vehicle,OCI-C5x (clear cell),2,28.4,active
PRKCA (protein kinase C alpha),Vehicle,OCI-C5x (clear cell),3,109,inactive
PRKCA (protein kinase C alpha),Vehicle,OCI-C5x (clear cell),3,43.8,active
PRKCA (protein kinase C alpha),Vehicle,OCI-P5x (serous),1,52.1,active
PRKCA (protein kinase C alpha),Vehicle,OCI-P5x (serous),1,115,inactive
PRKCA (protein kinase C alpha),Vehicle,OCI-P5x (serous),2,58.2,active
PRKCA (protein kinase C alpha),Vehicle,OCI-P5x (serous),2,115,inactive
PRKCA (protein kinase C alpha),Vehicle,OCI-P5x (serous),3,158,inactive
PRKCA (protein kinase C alpha),Vehicle,OCI-P5x (serous),3,137,inactive
MYLK3 (myosin light chain kinase 3),Rucaparib,OCI-C5x (clear cell),1,48.8,active
MYLK3 (myosin light chain kinase 3),Rucaparib,OCI-C5x (clear cell),2,54.4,active
MYLK3 (myosin light chain kinase 3),Rucaparib,OCI-C5x (clear cell),3,52.7,active
MYLK3 (myosin light chain kinase 3),Rucaparib,OCI-P5x (serous),1,61.2,active
MYLK3 (myosin light chain kinase 3),Rucaparib,OCI-P5x (serous),2,67.7,active
MYLK3 (myosin light chain kinase 3),Rucaparib,OCI-P5x (serous),3,66,active
MYLK3 (myosin light chain kinase 3),Vehicle,OCI-C5x (clear cell),1,109,inactive
MYLK3 (myosin light chain kinase 3),Vehicle,OCI-C5x (clear cell),2,63.2,active
MYLK3 (myosin light chain kinase 3),Vehicle,OCI-C5x (clear cell),3,50.4,active
MYLK3 (myosin light chain kinase 3),Vehicle,OCI-P5x (serous),1,60.1,active
MYLK3 (myosin light chain kinase 3),Vehicle,OCI-P5x (serous),2,53.6,active
MYLK3 (myosin light chain kinase 3),Vehicle,OCI-P5x (serous),3,60.1,active
